According to paper PMC11444514:
These are yes or no findings as the source states them, for the method shown. Binding seen in cells or lysates may run through a third protein. A yes stands for co-enrichment or nearness to the bait. Other partners may have been found.

The chains behind the UniProt entries cited, without tags or fusion partners.
UniProt P35579: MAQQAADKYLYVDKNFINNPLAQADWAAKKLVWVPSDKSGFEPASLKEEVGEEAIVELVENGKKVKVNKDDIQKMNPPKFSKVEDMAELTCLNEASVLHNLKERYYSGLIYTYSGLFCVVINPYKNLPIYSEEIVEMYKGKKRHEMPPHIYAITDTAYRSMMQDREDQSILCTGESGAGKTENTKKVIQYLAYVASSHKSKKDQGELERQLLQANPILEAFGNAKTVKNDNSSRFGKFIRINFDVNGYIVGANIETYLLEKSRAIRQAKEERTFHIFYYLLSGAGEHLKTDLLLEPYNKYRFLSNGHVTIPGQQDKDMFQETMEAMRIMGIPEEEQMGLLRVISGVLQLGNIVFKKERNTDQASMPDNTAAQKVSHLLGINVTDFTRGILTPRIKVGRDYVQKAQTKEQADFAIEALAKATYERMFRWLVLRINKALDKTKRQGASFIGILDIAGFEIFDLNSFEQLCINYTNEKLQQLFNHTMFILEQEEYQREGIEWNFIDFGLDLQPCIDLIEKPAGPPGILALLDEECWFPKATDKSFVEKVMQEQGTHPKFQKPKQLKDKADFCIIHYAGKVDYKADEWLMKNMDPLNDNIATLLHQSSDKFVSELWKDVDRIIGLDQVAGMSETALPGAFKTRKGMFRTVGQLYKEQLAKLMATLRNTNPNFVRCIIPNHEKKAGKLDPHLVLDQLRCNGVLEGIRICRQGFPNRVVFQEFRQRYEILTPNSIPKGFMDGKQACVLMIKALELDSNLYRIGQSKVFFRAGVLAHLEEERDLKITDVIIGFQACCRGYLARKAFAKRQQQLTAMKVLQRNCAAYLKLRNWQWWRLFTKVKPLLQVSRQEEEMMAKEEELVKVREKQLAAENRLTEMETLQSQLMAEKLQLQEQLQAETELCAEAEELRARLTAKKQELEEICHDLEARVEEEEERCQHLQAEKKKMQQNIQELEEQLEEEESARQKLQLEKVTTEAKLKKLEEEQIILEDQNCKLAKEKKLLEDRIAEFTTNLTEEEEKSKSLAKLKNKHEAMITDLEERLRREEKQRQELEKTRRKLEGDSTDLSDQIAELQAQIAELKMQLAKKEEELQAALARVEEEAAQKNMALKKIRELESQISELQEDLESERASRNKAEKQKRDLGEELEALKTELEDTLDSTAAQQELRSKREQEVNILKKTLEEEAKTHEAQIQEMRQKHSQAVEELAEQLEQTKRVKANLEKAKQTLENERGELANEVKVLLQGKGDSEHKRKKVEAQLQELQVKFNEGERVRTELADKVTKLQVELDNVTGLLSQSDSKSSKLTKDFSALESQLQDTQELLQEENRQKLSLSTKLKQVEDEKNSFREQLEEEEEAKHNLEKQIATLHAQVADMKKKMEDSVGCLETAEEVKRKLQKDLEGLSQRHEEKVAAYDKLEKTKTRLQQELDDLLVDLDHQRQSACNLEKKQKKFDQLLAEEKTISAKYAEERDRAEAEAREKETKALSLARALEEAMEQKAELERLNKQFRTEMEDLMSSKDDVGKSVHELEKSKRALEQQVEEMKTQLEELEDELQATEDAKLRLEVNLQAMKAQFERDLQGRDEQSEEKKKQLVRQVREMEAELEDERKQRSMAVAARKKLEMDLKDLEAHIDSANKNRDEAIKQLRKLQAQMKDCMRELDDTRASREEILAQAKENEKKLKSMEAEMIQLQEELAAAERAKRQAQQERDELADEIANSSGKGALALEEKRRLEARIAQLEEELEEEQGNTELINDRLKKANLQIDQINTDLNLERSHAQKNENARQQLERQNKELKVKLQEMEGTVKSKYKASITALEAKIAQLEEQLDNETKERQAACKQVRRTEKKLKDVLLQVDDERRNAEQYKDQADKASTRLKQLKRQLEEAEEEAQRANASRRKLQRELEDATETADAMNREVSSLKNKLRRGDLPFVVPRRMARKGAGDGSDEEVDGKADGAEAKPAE
UniProt O14950: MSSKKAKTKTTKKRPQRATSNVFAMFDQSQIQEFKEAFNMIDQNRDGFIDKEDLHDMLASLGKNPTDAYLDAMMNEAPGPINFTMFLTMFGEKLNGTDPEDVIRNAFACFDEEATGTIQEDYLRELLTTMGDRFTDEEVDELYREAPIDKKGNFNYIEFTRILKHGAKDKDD

Target: T1, BPP43_05035 (Brachyspira pilosicoli strain P43/6/78)
T1 sequence: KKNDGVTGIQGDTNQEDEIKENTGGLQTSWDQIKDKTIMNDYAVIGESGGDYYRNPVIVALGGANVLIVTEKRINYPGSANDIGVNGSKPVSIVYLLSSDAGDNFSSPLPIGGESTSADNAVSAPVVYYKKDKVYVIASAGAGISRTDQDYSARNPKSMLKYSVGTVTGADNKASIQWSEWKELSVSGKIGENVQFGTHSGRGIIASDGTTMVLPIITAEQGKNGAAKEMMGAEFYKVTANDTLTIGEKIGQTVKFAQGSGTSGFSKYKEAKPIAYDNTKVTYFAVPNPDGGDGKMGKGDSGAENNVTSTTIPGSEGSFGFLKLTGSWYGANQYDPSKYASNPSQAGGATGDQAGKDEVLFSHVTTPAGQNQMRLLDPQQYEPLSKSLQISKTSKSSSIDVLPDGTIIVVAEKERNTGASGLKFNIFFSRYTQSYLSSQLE
Assay: affinity purification with mass spectrometry; 100 µg purified recombinant BPP43_05035 incubated with 1 mL lysate of differentiated Caco-2 cells (25 mM Tris-HCl, 150 mM NaCl, 1% Triton X-100, pH 7.4) overnight at 4°C; precipitated with BPP43_05035-specific rabbit antibody and sheep anti-rabbit IgG Dynabeads; bands cut from the SDS-PAGE gel and identified by mass spectrometry; controls: pre-serum and unconjugated beads; only the target purified

Substance | binding
Myosin-9 (MYH9) (from UniProt P35579 1-1960) | binds
Myosin regulatory light-chain 12B (MYL12B, MLC2) (from UniProt O14950 1-172) | binds
